Results are given in words; binding and its absence hold for the method and conditions named. Binding seen in cells or lysates may run through a third protein. Some results given as binding are weak or reduced against the parent protein; the word gives no strength.
Experiments:
[1] = biological target: T1, charged multivesicular body protein 4B (CHMP4B) (mouse (endogenous in N2a cells and in mouse hippocampus)) (UniProt Q9D8B3); assay: co-IP; hippocampal homogenate (RIPA lysis buffer) of WT+Vec, MAPT+Vec and MAPT+AAV-CHMP4B mice; anti-CHMP4B on protein A+G agarose, incubated with the homogenate at 4°C overnight; Western blot
T1 sequence: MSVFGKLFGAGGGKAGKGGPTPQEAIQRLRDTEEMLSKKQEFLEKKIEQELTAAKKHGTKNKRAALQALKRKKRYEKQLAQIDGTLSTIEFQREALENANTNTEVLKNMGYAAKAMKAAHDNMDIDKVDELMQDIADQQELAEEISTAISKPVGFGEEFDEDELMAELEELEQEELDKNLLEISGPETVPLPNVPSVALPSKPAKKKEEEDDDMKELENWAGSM

The chains behind the UniProt entries cited, without tags or fusion partners.
UniProt Q8BJF9: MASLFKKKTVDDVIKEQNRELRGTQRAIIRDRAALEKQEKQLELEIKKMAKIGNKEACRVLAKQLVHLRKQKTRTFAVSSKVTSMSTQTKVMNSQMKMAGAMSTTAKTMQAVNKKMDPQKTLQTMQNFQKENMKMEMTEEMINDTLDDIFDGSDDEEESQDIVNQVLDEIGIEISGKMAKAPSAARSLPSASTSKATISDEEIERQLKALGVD

[2] = biological target: T1, charged multivesicular body protein 4B (CHMP4B) (mouse (endogenous in N2a cells and in mouse hippocampus)); assay: co-IP; N2a cell lysate; cells overexpressing vector or MAPT (Figure 2G,H) or treated with siChmp4b (Figure S2F,G); blots for CHMP4B, CHMP2B and ALIX; the methods tell the procedure (anti-CHMP4B on protein A+G agarose) only for hippocampal tissue

binding [1]: binds | binding [2]: binds
Substance: charged multivesicular body protein 2B (CHMP2B) (from UniProt Q8BJF9 1-213)

From paper PMC12507411
